The text below walks through data of paper doi:10.1101/2022.11.15.516687.

Experiment [1] concerns the target T1, HA-tagged IDOL (UniProt Q8WY64).
T1 sequence: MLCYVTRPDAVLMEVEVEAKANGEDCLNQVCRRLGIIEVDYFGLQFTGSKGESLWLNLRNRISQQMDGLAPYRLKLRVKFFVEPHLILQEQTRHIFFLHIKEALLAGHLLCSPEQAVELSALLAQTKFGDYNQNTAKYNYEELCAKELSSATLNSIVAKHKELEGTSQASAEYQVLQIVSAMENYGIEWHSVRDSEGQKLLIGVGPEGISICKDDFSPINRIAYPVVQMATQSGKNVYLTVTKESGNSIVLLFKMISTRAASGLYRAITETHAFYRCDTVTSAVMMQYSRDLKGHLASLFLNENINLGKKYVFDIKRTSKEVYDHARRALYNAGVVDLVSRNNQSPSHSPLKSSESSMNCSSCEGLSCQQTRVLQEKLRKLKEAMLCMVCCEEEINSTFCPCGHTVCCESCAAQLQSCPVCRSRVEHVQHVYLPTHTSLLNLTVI
Kind of experiment: co-IP.

For experiment [2], the target named is myc-tagged UL136p33 (human cytomegalovirus (HCMV)). The experiment is described as follows: co-IP.

Results are given in words; binding and its absence hold for the method and conditions named. Binding seen in cells or lysates may run through a third protein. Binding calls can cover weak binding; strength is not graded here. Sequences can lack the tags named with a protein.

Consider “myc-tagged UL136p33 (human cytomegalovirus (HCMV))”, for which, in experiment [1], the binding result was “binds”.

B1: HA-tagged IDOL (enzyme, UniProt Q8WY64 1-445)
chain: T1 sequence
Regarding B1, the binding result in experiment [2] is on record as “binds”.
